Experimental data: publication PMC8483321
These are yes or no findings as the source states them, for the method shown. In cells and extracts the contact can be indirect. Some results given as binding are weak or reduced against the parent protein; the word gives no strength.

Amino acid sequences for entries named in this document (tags omitted). A change or cut given only in a name is not applied to a line headed by its entry. Chains listed by the source or under a name are the forms on record and can include a tag or linker. Residues count along the entry.
UniProt Q92560: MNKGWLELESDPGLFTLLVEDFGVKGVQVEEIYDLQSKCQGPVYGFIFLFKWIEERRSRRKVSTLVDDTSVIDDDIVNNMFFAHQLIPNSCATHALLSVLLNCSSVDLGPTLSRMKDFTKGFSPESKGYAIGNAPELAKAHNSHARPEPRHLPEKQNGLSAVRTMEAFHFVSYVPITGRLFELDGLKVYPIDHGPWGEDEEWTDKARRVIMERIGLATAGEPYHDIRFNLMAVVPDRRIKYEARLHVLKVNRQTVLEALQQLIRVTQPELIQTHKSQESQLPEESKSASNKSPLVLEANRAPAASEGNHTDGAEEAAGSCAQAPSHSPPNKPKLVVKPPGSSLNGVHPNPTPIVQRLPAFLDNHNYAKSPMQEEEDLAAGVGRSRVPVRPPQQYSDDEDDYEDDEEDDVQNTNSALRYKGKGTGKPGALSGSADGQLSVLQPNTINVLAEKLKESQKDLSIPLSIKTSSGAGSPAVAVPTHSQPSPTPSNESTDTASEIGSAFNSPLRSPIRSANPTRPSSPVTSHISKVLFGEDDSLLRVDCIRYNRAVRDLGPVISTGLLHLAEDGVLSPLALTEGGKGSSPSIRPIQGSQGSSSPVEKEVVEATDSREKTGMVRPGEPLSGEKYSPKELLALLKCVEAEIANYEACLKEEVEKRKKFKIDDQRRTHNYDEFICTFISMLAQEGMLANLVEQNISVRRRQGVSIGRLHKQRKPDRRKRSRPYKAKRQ
GFP-BAP1 SASRQ (Q92560, form named): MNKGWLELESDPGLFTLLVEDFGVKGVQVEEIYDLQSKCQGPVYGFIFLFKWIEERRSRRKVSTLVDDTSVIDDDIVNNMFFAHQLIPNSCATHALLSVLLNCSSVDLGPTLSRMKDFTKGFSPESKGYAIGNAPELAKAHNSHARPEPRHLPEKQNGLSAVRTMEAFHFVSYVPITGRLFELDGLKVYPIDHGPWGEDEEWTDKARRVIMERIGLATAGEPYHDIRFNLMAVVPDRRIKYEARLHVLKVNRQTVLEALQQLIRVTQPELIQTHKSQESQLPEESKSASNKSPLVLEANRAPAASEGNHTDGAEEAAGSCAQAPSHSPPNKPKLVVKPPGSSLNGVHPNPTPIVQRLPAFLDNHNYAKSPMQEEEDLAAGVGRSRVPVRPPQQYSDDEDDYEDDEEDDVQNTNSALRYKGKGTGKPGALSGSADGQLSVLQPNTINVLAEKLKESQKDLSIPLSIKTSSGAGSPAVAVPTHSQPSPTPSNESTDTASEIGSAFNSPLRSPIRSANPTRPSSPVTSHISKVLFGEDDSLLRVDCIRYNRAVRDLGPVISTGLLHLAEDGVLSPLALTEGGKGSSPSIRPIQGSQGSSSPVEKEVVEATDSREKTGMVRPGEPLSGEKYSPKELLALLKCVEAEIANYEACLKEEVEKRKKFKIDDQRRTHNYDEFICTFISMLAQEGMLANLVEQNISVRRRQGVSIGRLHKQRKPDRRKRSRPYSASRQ
UniProt O14579, residues 2-308: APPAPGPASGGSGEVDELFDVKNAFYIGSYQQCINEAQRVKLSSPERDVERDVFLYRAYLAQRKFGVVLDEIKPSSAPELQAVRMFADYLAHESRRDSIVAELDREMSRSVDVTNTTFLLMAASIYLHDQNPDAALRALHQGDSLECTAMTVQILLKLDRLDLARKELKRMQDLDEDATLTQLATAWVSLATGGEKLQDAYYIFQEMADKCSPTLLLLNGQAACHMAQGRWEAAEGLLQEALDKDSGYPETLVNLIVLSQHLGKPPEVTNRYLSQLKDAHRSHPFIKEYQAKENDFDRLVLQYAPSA

Columns and labels:
[1] = target: GFP-BAP1 SASRQ (UniProt Q92560); assay: co-IP; GFP-Trap agarose beads, 20 min at 4°C with ethidium bromide, washes in WCE buffer; lysates of HeLa cells expressing GFP-BAP1 wt, GFP-BAP1 SASRQ or GFP-COPE; lysates supplemented with CAA or DTT as indicated (Fig 5B, C); mock or GFP immunoprecipitation; immunoblot
[2] = target: GFP-COPE (UniProt O14579); assay: as above
[3] = target: (N)GFP-FLAG-BAP1 fusion protein (BRCA1-associated protein 1, full-length) (UniProt Q92560); assay: as above
[4] = target: BAP1, endogenous (HeLa FRT) (human (endogenous in HeLa)) (UniProt Q92560); assay: co-IP; endogenous BAP1 precipitated overnight at 4°C with different BAP1 antibodies (normal IgG as negative control), SureBeads Protein G Magnetic beads, ethidium bromide present, washes in WCE buffer; HeLa FRT wt cell lysate; immunoblot for COPA

Measured: binding

B1: COPA (protein, UniProt P53621 1-1224)
chain: MLTKFETKSARVKGLSFHPKRPWILTSLHNGVIQLWDYRMCTLIDKFDEHDGPVRGIDFHKQQPLFVSGGDDYKIKVWNYKLRRCLFTLLGHLDYIRTTFFHHEYPWILSASDDQTIRVWNWQSRTCVCVLTGHNHYVMCAQFHPTEDLVVSASLDQTVRVWDISGLRKKNLSPGAVESDVRGITGVDLFGTTDAVVKHVLEGHDRGVNWAAFHPTMPLIVSGADDRQVKIWRMNESKAWEVDTCRGHYNNVSCAVFHPRQELILSNSEDKSIRVWDMSKRTGVQTFRRDHDRFWVLAAHPNLNLFAAGHDGGMIVFKLERERPAYAVHGNMLHYVKDRFLRQLDFNSSKDVAVMQLRSGSKFPVFNMSYNPAENAVLLCTRASNLENSTYDLYTIPKDADSQNPDAPEGKRSSGLTAVWVARNRFAVLDRMHSLLIKNLKNEITKKVQVPNCDEIFYAGTGNLLLRDADSITLFDVQQKRTLASVKISKVKYVIWSADMSHVALLAKHAIVICNRKLDALCNIHENIRVKSGAWDESGVFIYTTSNHIKYAVTTGDHGIIRTLDLPIYVTRVKGNNVYCLDRECRPRVLTIDPTEFKFKLALINRKYDEVLHMVRNAKLVGQSIIAYLQKKGYPEVALHFVKDEKTRFSLALECGNIEIALEAAKALDDKNCWEKLGEVALLQGNHQIVEMCYQRTKNFDKLSFLYLITGNLEKLRKMMKIAEIRKDMSGHYQNALYLGDVSERVRILKNCGQKSLAYLTAATHGLDEEAESLKETFDPEKETIPDIDPNAKLLQPPAPIMPLDTNWPLLTVSKGFFEGTIASKGKGGALAADIDIDTVGTEGWGEDAELQLDEDGFVEATEGLGDDALGKGQEEGGGWDVEEDLELPPELDISPGAAGGAEDGFFVPPTKGTSPTQIWCNNSQLPVDHILAGSFETAMRLLHDQVGVIQFGPYKQLFLQTYARGRTTYQALPCLPSMYGYPNRNWKDAGLKNGVPAVGLKLNDLIQRLQLCYQLTTVGKFEEAVEKFRSILLSVPLLVVDNKQEIAEAQQLITICREYIVGLSVETERKKLPKETLEQQKRICEMAAYFTHSNLQPVHMILVLRTALNLFFKLKNFKTAATFARRLLELGPKPEVAQQTRKILSACEKNPTDAYQLNYDMHNPFDICAASYRPIYRGKPVEKCPLSGACYSPEFKGQICRVTTVTEIGKDVIGLRISPLQFR
binds: all assays above
